Assay [1] deals with type IV collagen (from Engelbreth-Holm-Swarm murine sarcoma basement membrane) (murine). The experiment in a line: ELISA; substrate coated at 0.03 μM in HBS (25 mM HEPES pH 7.4, 150 mM NaCl) on non-tissue culture 96-well plates overnight at 4°C, blocked with HBSB (1% BSA); MBP fusion at 1 μM in HBSB, 1 hr at RT; fixed; detected with anti-MBP antiserum; compared with buffer-coated wells and with MBP-β-gal; both …. (In general: An ELISA detects its analyte on a solid surface through an enzyme-linked reagent.)

Assay [2] addresses laminin (from Engelbreth-Holm-Swarm murine sarcoma basement membrane) (murine). The description is as above.

Results are given in words; binding and its absence hold for the method and conditions named. Tags and fused reporters may be left off the sequences shown.

B1: MBP-LipL32 (protein, UniProt Q72SM7 20-272)
chain: CGAFGGLPSLKSSFVLSEDTIPGTNETVKTLLPYGSVINYYGYVKPGQAPDGLVDGNKKAYYLYVWIPAVIAEMGVRMISPTGEIGEPGDGDLVSDAFKAATPEEKSMPHWFDTWIRVERMSAIMPDQIAKAAKAKPVQKLDDDDDGDDTYKEERHNKYNSLTRIKIPNPPKSFDDLKNIDTKKLLVRGLYRISFTTYKPGEVKGSFVASVGLLFPPGIPGVSPLIHSNPEELQKQAIAAEESLKKAASDATK
With B1, the binding entry in assay [1] and in assay [2] was “no binding (tested: 1 μM)” in each case.

Source of the values: publication PMC4397020.
